Earlier results, collected in patent US9624256B2, “Coordination complexes, pharmaceutical solutions comprising coordination complexes, and methods of treating patients” (SYNTHONICS, INC., priority 2004, dated 2017).
Read-outs that look alike come from different tables or passages of the source.

Assays:
[1] = complex with zinc; cited from earlier work
[2] = complex with magnesium; cited from earlier work

Compound	log Keq [1]	log Keq [2]
hydroxypropanoic acid	0.86	
Nc1ncnc2c1ncn2[C@@H]1O[C@H](COP(=O)(O)O)[C@@H](O)[C@H]1O [adenosine-5′-monophosphoric acid]		1.80
NCC(=O)O [glycine]		1.34
Oc1ncnc2nc[nH]c12 [6-hydroxypurine]		6.65
Nc1ncnc2nc[nH]c12 [adenine]		2.08
mercaptopropanoic acid	6.43	
